According to paper PMC2861688:
No constants are given. Whether binding was seen depends on the method and setting. Binding seen in cells or lysates may run through a third protein. Some entries that bind do so weakly or less than the wild type.

By UniProt entry, the sequences of proteins in these tests, tags left out.
UniProt Q9Y297: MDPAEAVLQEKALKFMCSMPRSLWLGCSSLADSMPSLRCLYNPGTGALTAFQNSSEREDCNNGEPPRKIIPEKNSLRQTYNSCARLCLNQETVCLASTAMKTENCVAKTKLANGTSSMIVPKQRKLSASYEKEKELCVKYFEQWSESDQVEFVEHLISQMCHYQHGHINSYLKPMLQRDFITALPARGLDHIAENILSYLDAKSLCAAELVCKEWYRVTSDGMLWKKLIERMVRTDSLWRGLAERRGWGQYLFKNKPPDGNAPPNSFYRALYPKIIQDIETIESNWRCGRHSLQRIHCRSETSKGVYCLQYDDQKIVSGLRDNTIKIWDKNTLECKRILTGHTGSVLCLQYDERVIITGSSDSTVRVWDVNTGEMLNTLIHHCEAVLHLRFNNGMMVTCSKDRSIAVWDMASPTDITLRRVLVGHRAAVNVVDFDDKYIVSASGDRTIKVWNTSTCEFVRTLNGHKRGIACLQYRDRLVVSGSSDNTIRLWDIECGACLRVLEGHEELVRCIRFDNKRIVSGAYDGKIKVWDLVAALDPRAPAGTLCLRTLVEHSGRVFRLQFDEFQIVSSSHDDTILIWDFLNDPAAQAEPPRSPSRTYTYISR

Target: FLAG-tagged human β-TrCP1 (human) (UniProt Q9Y297)
Experiment: co-IP

## wild-type HIV-1 Vpu (codon-optimized, NL4-3 variant) (from UniProt P05923 1-81)
  binding: binds
